System: Trichoplusia ni (cabbage looper) larvae
Test: In-vitro insecticidal efficacy (mortality and bioactivity, treated artificial diet, Abbott and Colby formulas) against Trichoplusia ni
Format: in vivo
Conditions: Table 69B, Coragen 0.2525 ppm (0.04646 ppm chlorantraniliprole), aliphatic acid (salt) 500 ppm, alone or combined
Experimental: An artificial diet suitable for Trichoplusia ni (cabbage looper caterpillar) was prepared from a commercially available general purpose lepidoptera artificial diet premix (such as General Purpose Lepidoptera Diet available from Frontier Scientific Services, Newark, DE) and mixed in a heated liquid agar media (0.022 g agar per ml of water). The liquid artificial diet and agar media was then used to fill each well of a transparent 96-well treatment plate with 200 μL of the artificial diet and agar media, which was allowed to solidify at room temperature and stored at approximately 4 C.
A 20 μL treatment sample of each treatment formulation was then placed on top of the solidified artificial diet media in a well of a 96 well plate and allowed to dry overnight.
The following day, one neonate Trichoplusia ni (cabbage looper) larva (hatched from eggs obtained from the Benzon Research, Inc. of Carlisle, PA, USA) was added to each well of the plate, after which the wells were sealed with a perforated transparent film, allowing air and moisture exchange. The plates were kept in a suitable regulated indoor incubation environment and the larvae were allowed to feed on the treatment overlaid diet/agar media for 5 days. […] Each experiment contained 8 replicates (larvae cells) for each treatment.
While for SF<1, antagonism is present and for SF=1, the efficacy of the compounds is merely additive. […]

SMILES: CC(C)CC(=O)O [3-methylbutyric acid]
- Survival Rate (100-(mortality + stunting)): 91.67%

Reference: US20240389581A1, “SYNERGISTIC PESTICIDAL COMPOSITIONS AND METHODS FOR DELIVERY OF INSECTICIDAL ACTIVE INGREDIENTS” (TERRAMERA, INC., priority 2021, published 2024)
